# At least one read-out could not be matched to a standard name with certainty.
# Test: Rheometry of 1 w % SLanc hydrogels (frequency sweep, strain sweep, shear recovery)
# Format: physicochemical
# Settings: 100% strain for 1 minute, then 1% strain; within seconds
substance,measurement,value
"Ac-KSLSLSLRGSLSLSLKGKLTWQELYQLKYKGI-NH2 [SLanc, K-(SL)3(RG)(SL)3-K-G-KLTWQELYQLKYKGI]",recovery of storage modulus after high shear,greater than 95%
